Laboratory results reported in US20060281125.
For some assays here: Where cells or extracts were used, other partners may take part. For some assays here: The exact form of at least one protein or probe is not confirmed.

The chains behind the UniProt entries cited, without tags or fusion partners. Residues count along the entry.
UniProt Q96T88, 263-793 K383N/A457S: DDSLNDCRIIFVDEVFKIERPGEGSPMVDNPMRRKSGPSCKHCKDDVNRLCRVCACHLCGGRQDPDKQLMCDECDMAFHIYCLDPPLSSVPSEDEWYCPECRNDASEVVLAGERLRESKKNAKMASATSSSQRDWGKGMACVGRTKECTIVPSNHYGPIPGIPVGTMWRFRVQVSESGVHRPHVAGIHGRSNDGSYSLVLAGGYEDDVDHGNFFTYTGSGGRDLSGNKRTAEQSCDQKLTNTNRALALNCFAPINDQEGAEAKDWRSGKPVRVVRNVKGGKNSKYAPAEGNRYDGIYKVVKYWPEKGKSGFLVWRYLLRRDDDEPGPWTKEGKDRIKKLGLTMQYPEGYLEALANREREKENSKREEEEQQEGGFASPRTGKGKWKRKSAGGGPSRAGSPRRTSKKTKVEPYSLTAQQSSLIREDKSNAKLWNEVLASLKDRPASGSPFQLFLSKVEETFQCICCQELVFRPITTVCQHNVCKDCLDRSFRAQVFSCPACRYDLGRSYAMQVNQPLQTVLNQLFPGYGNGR
UniProt Q96T88, whole entry K383N/A457S: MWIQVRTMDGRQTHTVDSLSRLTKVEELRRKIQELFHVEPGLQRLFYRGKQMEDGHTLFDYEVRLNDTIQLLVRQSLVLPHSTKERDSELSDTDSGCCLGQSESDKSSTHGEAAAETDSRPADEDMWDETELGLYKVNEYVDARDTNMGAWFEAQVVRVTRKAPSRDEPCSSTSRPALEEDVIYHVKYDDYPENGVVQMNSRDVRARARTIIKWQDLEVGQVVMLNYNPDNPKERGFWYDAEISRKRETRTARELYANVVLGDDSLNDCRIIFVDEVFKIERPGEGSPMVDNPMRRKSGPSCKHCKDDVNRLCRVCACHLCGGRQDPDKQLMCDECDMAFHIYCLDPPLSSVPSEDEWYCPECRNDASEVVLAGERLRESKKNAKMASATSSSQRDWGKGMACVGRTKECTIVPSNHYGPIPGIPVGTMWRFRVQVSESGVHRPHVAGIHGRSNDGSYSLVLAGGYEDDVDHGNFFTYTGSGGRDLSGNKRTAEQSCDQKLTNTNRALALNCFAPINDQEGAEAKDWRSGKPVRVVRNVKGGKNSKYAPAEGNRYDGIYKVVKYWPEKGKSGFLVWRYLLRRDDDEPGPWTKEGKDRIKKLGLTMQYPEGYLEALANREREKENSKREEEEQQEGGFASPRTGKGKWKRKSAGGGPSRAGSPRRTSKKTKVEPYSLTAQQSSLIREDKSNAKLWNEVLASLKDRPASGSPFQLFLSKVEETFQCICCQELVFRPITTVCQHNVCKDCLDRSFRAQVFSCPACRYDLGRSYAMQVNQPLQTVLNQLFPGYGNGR

What was measured:
[1] = target: ICBP-59 GAL4-AD fusion (Homo sapiens) (UniProt Q96T88); assay: one hybrid; details: yeast YM4271, pHISi-1 his3 reporter; protein in cells; protein details: GAL4-AD (pGAD10); label: 32P
ICBP90 (Homo sapiens) = ICBP90 (Homo sapiens) (UniProt Q96T88); assay: EMSA; details: same buffer as ICBP-59; behaviour stated identical to ICBP-59; purified recombinant protein; protein details: GST fusion system (pGEX-4T-1), E. coli BL21; label: 32P

Sequence	binding result [1]	binding result (ICBP90 (Homo sapiens))
AATTCGATTGGTTCTGATTGGTTCTGATTGGTTCTT / CTAGAAGAACCAATCAGAACCAATCAGAACCAATCG [ICB2X3]	binds	
ATAAAGGCAAGCTACGATTGGTTCTTCTGGACGGAGAC / GTCTCCGTCCAGAAGAACCAATCGTAGCTTGCCTTTTAT [ICB2 single copy]		binds
